{
  "source": "patent US20220346382A1",
  "about": "“COMPOSITION FOR TREATING AND PREVENTING BACTERIAL GROWTH ON A SUBSTRATE” (PETROLIAM NASIONAL BERHAD (PETRONAS), priority 2019, published 2022)",
  "experiment": "Corrosion rate by weight loss and pitting of carbon steel coupons immersed in the formulations",
  "conditions": "seven days immersion, versus control formulation",
  "data": [
    {"substance": "tetrakis hydroxymethyl phosphonium sulfate [THPS, reference compound]", "values": [
      {"measurement": "effect on corrosion rate", "result": "not effective to reduce the corrosion rate"}
    ]}
  ]
}
